Article PMC5966398

How the values were obtained:
[1] = target: T1, SpYY1 (native, ova lysate) (Strongylocentrotus purpuratus) (UniProt A0A7M7RHL1); test: EMSA; conditions: 50 mM NaCl, 50 mM Tris-HCl pH 7.5, 2 mM MgCl2, 1 mM DTT, 5% glycerol, room temperature 20 min, 10 nM probe, protein in an extract, unlabelled as competitor
[2] = target: T1, SpYY1 (native, ova lysate) (Strongylocentrotus purpuratus); test: competition with a labelled probe; conditions: 50 mM NaCl, 50 mM Tris-HCl pH 7.5, 2 mM MgCl2, 1 mM DTT, 5% glycerol, room temperature 20 min, 10 nM probe, protein in an extract, unlabelled as competitor

Measured: binding result

CTAGGCGCTCCCCGGCCATCTTGGCGGCTGGT (double strand) [YY1 consensus DNA element (YY1C)]
binds: [1]; with or without RNase (no significant change), label: 32P end-fill when probe | [2]; 10x excess vs U(20) probe, label: 32P end-fill when probe | [2]; 10x excess vs YY1 DNA probe, label: 32P end-fill when probe

UUUUUUUUUUUUUUUUUUUU [U(20) RNA]
binds: [1]; with or without RNase pretreatment (no difference), label: 5'-32P when probe | [2]; 10x excess vs U(20) probe, label: 5'-32P when probe | [2]; 10x excess vs YY1 DNA probe, label: 5'-32P when probe

Construct, isoform or probe ends are uncertain for at least one entry. Where cells or extracts were used, other partners may take part.
